In US5122368A, “Anthracycline conjugates having a novel linker and methods for their production” (Bristol-Myers Squibb Company, priority 1989, dated 1992):
Not every detail of the peptide structures is certain; ends, links or a residue may be inferred.

Sequences of proteins named here, by UniProt entry; tags and fusion partners are left off. A change or cut given only in a name is not applied to a line headed by its entry.
UniProt P21729: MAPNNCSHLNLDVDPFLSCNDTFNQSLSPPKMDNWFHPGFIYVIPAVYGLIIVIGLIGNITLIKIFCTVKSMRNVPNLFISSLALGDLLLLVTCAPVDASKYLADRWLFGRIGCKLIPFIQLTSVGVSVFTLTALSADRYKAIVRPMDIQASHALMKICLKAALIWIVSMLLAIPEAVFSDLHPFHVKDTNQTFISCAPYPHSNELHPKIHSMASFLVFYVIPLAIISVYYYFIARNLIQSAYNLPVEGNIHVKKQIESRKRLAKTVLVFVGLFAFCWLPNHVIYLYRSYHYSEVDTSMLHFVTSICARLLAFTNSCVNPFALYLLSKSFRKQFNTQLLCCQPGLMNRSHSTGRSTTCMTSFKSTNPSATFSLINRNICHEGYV

Molecular target: T1, bombesin receptor (Mus musculus, UniProt P21729)
T1 construct: host or cells: Swiss 3T3 mouse fibroblasts
Test: 125I-GRP competitive binding assay on Swiss 3T3 cells

CSCC[C@H](NC(=O)[C@H](CC(C)C)NC(=O)[C@H](Cc1c[nH]cn1)NC(=O)CNC(=O)[C@@H](NC(=O)[C@H](C)NC(=O)[C@H](Cc1c[nH]c2ccccc12)NC(=O)[C@H](CCC(N)=O)NC(=O)[C@H](CC(N)=O)NC(=O)CNC(=O)[C@H](CC(C)C)NC(=O)[C@H](CCCCN)NC(=O)[C@H](CCC(N)=O)NC(=O)[C@H](CCC(=O)O)NC(=O)[C@@H](N)CS)C(C)C)C(N)=O [cys-bombesin, Cys-Glu-Gln-Lys-Leu-Gly-Asn-Gln-Trp-Ala-Val-Gly-His-Leu-Met-NH2]
inhibition of 125I-GRP binding (1 h room temperature): specific competition
binding activity on receptor-positive cells, cys-bombesin vs bombesin (other studies): equivalent binding activities
